The results in this text go back to US6538008B1, “Combination of a selective NMDA NR2B antagonist and an opioid analgesic” (Merck Sharpe & Dohme Limited, priority 1998, dated 2003).

In this data set the test system is rotarod performance (motor co-ordination). Nature of the data set: Motor co-ordination and behaviour, accelerating rotarod. The following applies: rotarod ID50 over ligation ID50. As for the experimental part: Anti-algesic activity was assessed using an assay of neuropathic pain in rats (sciatic nerve ligation) and in a carrageenan-induced hyperalgesia assay. Motor impairment was measured using an accelerating rotarod.
For sciatic nerve ligation, male Sprague Dawley rats (180-220 g) were anaesthetised with isofluorane, the left sciatic nerve exposed and 4 chromic catgut (4.0) ligatures were tied loosely around the nerve (spaced 1-2 mm apart) immediately proximal to the point of trifurcation. In sham-operated animals, the same dissection was performed but without ligation. Responses to mechanical pressure were assessed 7 days after ligation using a modified Randall-Selitto algesiometer in which constant force of 40 mmHg was applied to the hind paw and the latency to struggle was recorded as the reaction time. Mechanical allodynia was defined as the difference in reaction time for sham and ligature rats. Reaction times for drug treated rats were expressed as a percentage of this response. Compounds were administered 1 h before the test. In the carrageenan-induced hyperalgesia assay, male Sprague Dawley rats (100-120 g) received an intraplantar injection of carrageenan (4.5 mg) and mechanical thresholds were determined 3 h later using a modified Ugo Basile Algesiometer. Control rats received saline (0.15 ml i.pl.). Hyperalgesia was defined as the difference in vocalisation threshold for saline- and carrageenan-injected rats. Paw pressure scores for drug-treated rats were expressed as a percentage of this response. Compounds were administered 2 h after carrageenan. To determine the effects of the compounds on motor co-ordination, male Sprague Dawley rats (160-180 g) were first trained to remain for 120 s on the rotarod apparatus revolving at 12 r.p.m. on the morning before the test. […] Lamotrigine, gabapentin and (±)-CP-101,606 were suspended in 0.5% methocel and administered orally (1 ml/kg). Ifenprodil, L-701.324, L-687,414 and (±)-Ro25-6981 were dissolved or suspended in 0.5% methocel and administered intraperitoneally (1 ml/kg). MK-801 was dissolved in distilled water and given i.p. (1 ml/kg). Doses of compounds refer to the free base.
Male Sprague Dawley rats (100-120 g) received an intraplantar injection of carrageenan (4.5 mg) and mechanical thresholds were determined 3 h later using a modified Ugo Basile Algesiometer. Control rats received saline (0.15 ml i.pl.). Hyperalgesia was defined as the difference in vocalisation threshold for saline- and carrageenan-injected rats. Paw pressure scores for drug-treated rats were expressed as a percentage of this response. Compounds were administered 2 h after carrageenan. To determine the effects of morphine and (±)-Ro25-6981 on motor co-ordination, male Sprague Dawley rats (160-180 g) were first trained to remain for 120 s on the rotarod apparatus revolving at 12 r.p.m. on the morning before the test.
(±)-Ro25-6981 was suspended in 0.5% methocel and administered intraperitoneally (1 ml/kg). Morphine HCl was dissolved in saline and given subcutaneously (1 ml/kg). Doses of compounds refer to the free base.
(In general: The rotarod test checks motor coordination on a turning rod.)
With `Nc1nnc(-c2cccc(Cl)c2Cl)c(N)n1` [Lamotrigine, lamotrigine], the “Ratio Rotarod/Rat Ligation (ID50 motor impairment / ID50 inhibition of allodynia)” value was more than 45.
As for `C[C@]12N[C@H](Cc3ccccc31)c1ccccc12` [MK-801], the figure is 1.1.
(±)-CP-101,606: the “Ratio Rotarod/Rat Ligation (ID50 motor impairment / ID50 inhibition of allodynia)” value was more than 49.
As for `O=c1[nH]c2cc(Cl)ccc2c(O)c1-c1cccc(Oc2ccccc2)c1` [L-701,324], the figure is 0.7.
Consider `CC(C(O)c1ccc(O)cc1)N1CCC(Cc2ccccc2)CC1` (stereo not shown) [Ifenprodil, ifenprodil], for which the “Ratio Rotarod/Rat Ligation (ID50 motor impairment / ID50 inhibition of allodynia)” value came to 5.3.
In the case of `C[C@@H]1CN(O)C(=O)[C@@H]1N` [L-687,414], the “Ratio Rotarod/Rat Ligation (ID50 motor impairment / ID50 inhibition of allodynia)” value turned out to be 5.4.
Next, `NCC1(CC(=O)O)CCCCC1` [Gabapentin, gabapentin]: 1.5.
